The exact form of at least one protein or probe is not confirmed. For part of these data: A weaker result is weaker than the reference pair of the same experiment. For part of these data: Where a protein sequence is shown, tags need not be part of it.
How the values were obtained:
[1] = test system: T1, three-finger peptide 1B-2A-3B (synthetic); assay: binding assay; settings: protein details: fd phage pIII fusion, label: 5'-biotin, variant of p190 BCR-ABL cDNA fusion site oligo
T1 sequence: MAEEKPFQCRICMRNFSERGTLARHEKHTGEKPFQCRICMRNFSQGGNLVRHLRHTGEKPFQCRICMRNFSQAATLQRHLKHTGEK

Sequences of proteins named here, by UniProt entry; tags and fusion partners are left off. Residues count along the entry.
UniProt P03001, 25-123: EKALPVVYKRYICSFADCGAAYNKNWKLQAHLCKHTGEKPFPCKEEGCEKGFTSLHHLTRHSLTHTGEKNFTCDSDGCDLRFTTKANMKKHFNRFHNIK

[2] = biological target: TFIIIA first three fingers (UniProt P03001); assay: pull-down; settings: phage returned versus free beads or non-specific DNA (range given for TFIIIA and Zif268 phage); protein details: fd phage pIII fusion; label: 5'-biotin

“CCCCTTTCTCTTCCAGAAGCCCTTCAGCGGCCA (double strand) [genomic c-ABL intron 1/exon 2 junction oligo]”: binds more weakly ([1]; discriminates against c-ABL).

“GAGACGCAGGTGAGTTCC (double strand) [genomic BCR exon 1/intron 1 junction oligo]”: binds more weakly ([1]; discriminates against genomic BCR).

“TATGACTTGGATGGGAGACCGCCTGG / AATTCCAGGCGGTCTCCCATCCAAGTCA [TFIIIA site oligo]”: binds [2].
